Record: PubChem BioAssay AID1259297 (Sanger Institute, 2017)

- Screen: 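Kinases whose loss kills cells on their own or with targeted drugs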 (primary screen)
- System: human RCM1 colorectal cancer cell line
- Reagent: siRNA pool against human genes
- Treatment: separate arms: DMSO vehicle, or one anchor drug at a mild dose: BYL719 1 µM, cetuximab 5 µg/ml, trametinib 10 nM
- Measurement: 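Replicate-mean well viability as a share of non-targeting pool control, a robust z-score without drug, and synergy scores for BYL719, cetuximab and trametinib arms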
- Reading the numbers: viability z-score, knock-down alone: higher = more viable cells than non-targeting controls; viability, knock-down alone (DMSO): higher = more viable cells
- Hit rule: 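Essential when the viability robust z-score for knock-down alone is below -3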
- Meaning of the calls: active = essential when knocked down alone; inactive = no clear loss of viability alone
The deposit covers 794 reagents; this is an unselected part. 13 of all reagents (1.6%) were called active. 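Calls reflect knock-down without drug only; drug synergy is judged separately, with scores above 0.15 counted as synergy.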 Entries without a mark were called inactive. No viability above 1 is reported: the scale is capped. Not all columns of the deposit are shown. No sequences are given here. The record does not give: the amount of reagent, the time to read-out.

Against CDK5 (cyclin dependent kinase 5), the values are viability z-score, knock-down alone 0.144; viability, knock-down alone (DMSO) (fraction of control) = 0.93. After knock-down of RPS6KA4 (ribosomal protein S6 kinase A4), the record shows viability z-score, knock-down alone 0.623; viability, knock-down alone (DMSO) (fraction of control) = 0.974. For CMPK1 (cytidine/uridine monophosphate kinase 1), the entry reads viability z-score, knock-down alone 0.9; viability, knock-down alone (DMSO) (fraction of control) = 1. With knock-down of MAP2K3 (mitogen-activated protein kinase kinase 3), the record shows viability z-score, knock-down alone -1.03; viability, knock-down alone (DMSO) (fraction of control) = 0.821. Against GRK4 (G protein-coupled receptor kinase 4), the entry reads viability z-score, knock-down alone 0.1; viability, knock-down alone (DMSO) (fraction of control) = 0.926. With knock-down of PINK1 (PTEN induced kinase 1) the results were viability z-score, knock-down alone -2.09; viability, knock-down alone (DMSO) (fraction of control) = 0.723.

After knock-down of RIOK3 (RIO kinase 3) the results were viability z-score, knock-down alone 0.303; viability, knock-down alone (DMSO) (fraction of control) = 0.945. Against CIT (citron rho-interacting serine/threonine kinase), the values are viability z-score, knock-down alone -1.89; viability, knock-down alone (DMSO) (fraction of control) = 0.741. Depletion of SNRK (SNF related kinase) resulted in: viability z-score, knock-down alone -0.735; viability, knock-down alone (DMSO) (fraction of control) = 0.848. EFNB3 (ephrin B3) gave viability z-score, knock-down alone -1.81; viability, knock-down alone (DMSO) (fraction of control) = 0.748. After knock-down of GRK1 (G protein-coupled receptor kinase 1) the results were viability z-score, knock-down alone 0.9; viability, knock-down alone (DMSO) (fraction of control) = 1. RUNX1 (RUNX family transcription factor 1) gave viability z-score, knock-down alone -1.34; viability, knock-down alone (DMSO) (fraction of control) = 0.792.

After knock-down of PIK3CG, the record shows viability z-score, knock-down alone -0.0524; viability, knock-down alone (DMSO) (fraction of control) = 0.912. Depletion of WNK2 (WNK lysine deficient protein kinase 2) resulted in: viability z-score, knock-down alone -0.685; viability, knock-down alone (DMSO) (fraction of control) = 0.853. Knock-down of PRKCH (protein kinase C eta) resulted in: viability z-score, knock-down alone -0.887; viability, knock-down alone (DMSO) (fraction of control) = 0.834. With knock-down of BMAL1 (basic helix-loop-helix ARNT like 1), the record shows viability z-score, knock-down alone -2.91; viability, knock-down alone (DMSO) (fraction of control) = 0.647. After knock-down of AXL (AXL receptor tyrosine kinase), the record shows viability z-score, knock-down alone 0.9; viability, knock-down alone (DMSO) (fraction of control) = 1. Depletion of PDPK1 (3-phosphoinositide dependent protein kinase 1) resulted in: viability z-score, knock-down alone -0.307; viability, knock-down alone (DMSO) (fraction of control) = 0.888.

MUSK (muscle associated receptor tyrosine kinase) showed viability z-score, knock-down alone -1.06; viability, knock-down alone (DMSO) (fraction of control) = 0.818. With knock-down of NTRK3 (neurotrophic receptor tyrosine kinase 3), the record shows viability z-score, knock-down alone 0.9; viability, knock-down alone (DMSO) (fraction of control) = 1. For LRRK1 (leucine rich repeat kinase 1) the deposit lists viability z-score, knock-down alone 0.9; viability, knock-down alone (DMSO) (fraction of control) = 1. Silencing of NRBP2 (nuclear receptor binding protein 2) gave: viability z-score, knock-down alone -0.931; viability, knock-down alone (DMSO) (fraction of control) = 0.83. CLSPN (claspin) showed viability z-score, knock-down alone 0.777; viability, knock-down alone (DMSO) (fraction of control) = 0.989. For PAPSS2 (3'-phosphoadenosine 5'-phosphosulfate synthase 2) the deposit lists viability z-score, knock-down alone 0.885; viability, knock-down alone (DMSO) (fraction of control) = 0.999.

Depletion of MED24 (mediator complex subunit 24) came out at: viability z-score, knock-down alone 0.9; viability, knock-down alone (DMSO) (fraction of control) = 1. NADK (NAD kinase) gave viability z-score, knock-down alone 0.349; viability, knock-down alone (DMSO) (fraction of control) = 0.949. Depletion of SKAP1 (src kinase associated phosphoprotein 1) came out at: viability z-score, knock-down alone 0.9; viability, knock-down alone (DMSO) (fraction of control) = 1. Knock-down of ALPK3 (alpha kinase 3) came out at: viability z-score, knock-down alone -0.0768; viability, knock-down alone (DMSO) (fraction of control) = 0.909.

A stretch from the list above:
PINK1 (PTEN induced kinase 1) → viability z-score, knock-down alone: -2.09; viability, knock-down alone (DMSO) (fraction of control): 0.723
RIOK3 (RIO kinase 3) → viability z-score, knock-down alone: 0.303; viability, knock-down alone (DMSO) (fraction of control): 0.945
